Library screen at single concentrations

By UniProt entry, the sequences of proteins in these tests, tags left out. Residues count along the entry.
UniProt Q8IDJ8, 1-583: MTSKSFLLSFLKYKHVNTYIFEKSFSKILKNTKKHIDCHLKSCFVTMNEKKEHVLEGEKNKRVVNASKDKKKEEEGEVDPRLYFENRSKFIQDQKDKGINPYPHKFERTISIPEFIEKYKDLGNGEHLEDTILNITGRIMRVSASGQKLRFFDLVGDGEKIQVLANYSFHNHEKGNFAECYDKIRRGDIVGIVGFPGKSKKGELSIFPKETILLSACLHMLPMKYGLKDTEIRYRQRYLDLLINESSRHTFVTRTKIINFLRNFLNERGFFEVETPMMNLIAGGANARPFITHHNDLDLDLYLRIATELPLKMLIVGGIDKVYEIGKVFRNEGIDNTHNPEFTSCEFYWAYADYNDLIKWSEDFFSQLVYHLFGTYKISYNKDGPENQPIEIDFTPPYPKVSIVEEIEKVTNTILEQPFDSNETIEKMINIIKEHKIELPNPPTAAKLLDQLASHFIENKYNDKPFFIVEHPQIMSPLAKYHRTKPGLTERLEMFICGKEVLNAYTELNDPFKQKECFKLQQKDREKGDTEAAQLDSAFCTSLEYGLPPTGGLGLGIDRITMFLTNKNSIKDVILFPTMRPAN
UniProt P9WPC5, whole entry: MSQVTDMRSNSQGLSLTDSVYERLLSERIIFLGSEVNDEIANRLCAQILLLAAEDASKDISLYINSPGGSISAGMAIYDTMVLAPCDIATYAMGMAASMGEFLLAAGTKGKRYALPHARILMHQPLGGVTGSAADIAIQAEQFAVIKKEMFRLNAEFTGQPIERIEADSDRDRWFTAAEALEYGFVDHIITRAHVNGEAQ
UniProt P9WPC3, whole entry partner: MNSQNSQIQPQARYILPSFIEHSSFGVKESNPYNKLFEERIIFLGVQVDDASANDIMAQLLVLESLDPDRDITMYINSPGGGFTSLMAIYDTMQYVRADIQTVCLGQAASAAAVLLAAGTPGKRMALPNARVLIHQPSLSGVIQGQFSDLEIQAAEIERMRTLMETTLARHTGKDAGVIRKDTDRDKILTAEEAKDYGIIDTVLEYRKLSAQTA

Data taken from ChEMBL document CHEMBL3988442, “University of Dundee, Small-Polar-MMV Screening Library” (2021).

PfKRS1: 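Lysine-tRNA ligase, Plasmodium falciparum 3D7 (UniProt Q8IDJ8). Enzyme assay of the cytosolic lysyl-tRNA synthetase in 384-well plates, read by luminescence. Concentration: 30 µM. Direction is inferred from only a few compounds that gave an IC50; most scored high, so higher reads as stronger inhibition. Size under these conditions: about 69,000 compounds, about 49 of them at 50% or above in at least one test.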
ClpP1P2: 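Protease assay of ClpP1P2, read by the AMC dye that it sets free. Target: ClpP1P2, Mycobacterium tuberculosis (UniProt P9WPC5 and UniProt P9WPC3). Concentration: 50 µM. Direction is inferred from only a few compounds that gave an IC50; most scored high, so higher reads as stronger inhibition. Most other retested compounds had strongly negative values. About 69,000 compounds were tested under these conditions; 0.015% (about 10) showed 50% or more at least once.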

Values are the deposited “Percent Effect”, in %. The record does not define 0% and 100%; most values in the screen are far below 50% and negative numbers occur (in some assays of this library far below -100). Compounds were drawn at random from those tested, without regard to their results.

compound | PfKRS1 | ClpP1P2
N#Cc1ccc(C2CC(=O)Nc3c2cnn3C2CCCC2)cc1 (stereo not drawn) | -0.1112 | -13.76
Cc1cc(NC(=O)CN2CCn3c(nnc3C3CC3)C2)no1 | -1.267 | -2.375
O=C1CN(C(=O)C2CCOCC2)CCN1Cc1ccc(Cl)cc1 | 4.937 | 7.322
O=C(NCCN1CCOCC1)Nc1cc(F)ccc1-n1cccn1 | 8.313 | -6.069
CN(C)CCOCC1CN(C(=O)c2cscn2)Cc2ccnn2C1 (stereo not drawn) | -3.227 | -11.44
c1ccc(-c2ccc(C3CNCCO3)nc2)cc1 (stereo not drawn) | 4.986 | 10.08
Cn1cc(CN2CC[C@H]3[C@H]2CC(=O)N3Cc2ccncc2)cn1 | 5.215 | -3.9
O=C(NCCN1CCCC(CO)C1)c1ccc2scnc2c1 (stereo not drawn) | 3.035 | 4.169
CC(Cn1cccn1)NCc1nc(-c2ccc3c(c2)OCO3)no1 (stereo not drawn) | -6.177 | 4.809
Cc1nc(N2C[C@@H](CN3CCCCC3)[C@@H](CO)C2)c2sccc2n1 | -3.563 | 13.79
Cc1cc(NC(=O)CN2CCCC2c2noc(C3CC3)n2)n(C)n1 (stereo not drawn) | 0.2213 | -25.48
COc1cc2c(cc1OC)S(=O)(=O)N(Cc1ccccc1)C2=O | 12.1 | -8.944
CC(C)c1cc(NC(=O)CN2CCNC(=O)C2)on1 | 8.386 | 8.889
CCN(C(=O)CNC1CCc2ncnn2C1)C1=CCCCC1 (stereo not drawn) | -8.172 | -2.736
COc1ccc(NC(=O)CCC2CCCN(Cc3ncon3)C2)cc1Cl (stereo not drawn) | 4.383 | -6.909
CN1CCC(N(CCc2ccccc2)Cc2noc(C3CC3)n2)CC1 | 1.051 | -24.97
CC(C)NC(=O)N1C[C@H](OCc2cccnc2)[C@H]2COC[C@H]21 | 3.056 | -11.28
Cc1ccc(CN2CCCn3c(nc(Cn4ccnc4)cc3=O)C2)o1 | 4.177 | 13.75
COc1ccc(NC(=O)CSc2nc(C)c(C)c(C)c2C#N)cn1 | 6.585 | 7.536
O=C(Cc1ccon1)N1CCN(c2ccc(F)cc2Cl)CC1 | 6.335 | 0.5601
CCn1cc(-c2cc(C(=O)N3CCOCC3)c3cc(Cl)ccc3n2)cn1 | -2.147 | -22.27
Cn1ccc2ccnc(CC3CN(C(=O)C4CCC(F)(F)CC4)C3)c21 | 5.879 | -3.997
CCc1cnc(N2CC[C@@H]3CN(CCC(C)C)S(=O)(=O)[C@@H]3CC2)nc1 | 1.691 | -8.289
CC(=O)NCC(=O)N(CCN1CCOCC1)Cc1ccco1 | -2.096 | -18.77
O=S(=O)(c1cc(F)ccc1F)N1CCCC1c1ccco1 (stereo not drawn) | 3.801 | -4.748
CCn1nc(C)c(CN(CCCN(C)C)Cc2ccccn2)c1C | -0.7359 | 3.223
CCN(C)c1ccc(CNC(=O)c2cc(C(N)=O)cs2)cc1F | 6.162 | 5.255
CN1CCC/C1=N\S(=O)(=O)c1ccc(NC(=O)Cc2cccs2)cc1 | 1.474 | 6.176
CCc1ccccc1CN1CCN(Cc2ncc[nH]2)[C@H]2CS(=O)(=O)C[C@H]21 | 2.302 | -7.455
F[C@@H]1CN(C2CCC2)C[C@@H]1OCc1nc2ncccc2[nH]1 | -3.834 | 8.396
Cc1cccc2cc(C(=O)N3CCSCC3)n(C)c12 | 2.658 | 2.945
Cc1cccc(C(=O)N(CCCO)S(=O)(=O)c2cccs2)c1 | 0.06961 | -9.4
Cc1ccsc1C(=O)N1Cc2ccccc2C2(CCN(C)CC2)C1 | 0.6412 | -8.376
COCCN(Cc1ccccn1)Cc1sccc1C | 1.69 | -32.51
CC(C)c1ccc2c(c1)CCCN2C(=O)CN(C)S(C)(=O)=O | 7.509 | 0.8764
Cc1nnnn1CCC(=O)N1CCC2(CCC(=O)N(CC3CC3)C2)CC1 | 5.209 | 13.29
Cc1nn(CC(=O)N2CCCN(c3cccnn3)CC2)c(C)c1Cl | 4.099 | -12.66
O=C(CCc1ccccc1)N1C[C@H]2CCN[C@H]2C1 | 9.703 | 0.7462
Cc1ccc2c(n1)N(CC1CC1)CCN(Cc1cnn(C)c1)C2 | 0.998 | -5.327
Cc1cc(CN(C)C(=O)CN2CC3(CCNCC3)OC2=O)n(C)n1 | 0.08436 | -0.09109
Cn1ncc2c1CCCC2NCc1cnc(-c2ccccc2)nc1 (stereo not drawn) | 2.071 | 8.213
Cc1cc(CNC(=O)CCc2c(C)nc3cc(O)nn3c2C)no1 | 2.971 | 4.384
Cc1occc1C(=O)N1C[C@@H]2CN(S(C)(=O)=O)CCO[C@@H]2C1 | -1.963 | -2.324
N#Cc1cccnc1NCCNC(=O)N1CCCC(N2CCCC2)C1 (stereo not drawn) | 0.4186 | -2.783
c1cnnc(N2CCCC(NCc3ccc(-n4ccnc4)cc3)C2)c1 (stereo not drawn) | 7.4 | -3.375
O[C@@H]1CCN(CC2CCOC2)[C@H]1Cc1cccnc1 (stereo partly drawn) | -3.331 | 0.06772
CC(C)(C)Cc1noc2ncc(C(=O)N3CCC3)cc12 | 4.371 | -5.008
O=C(COCC(=O)N(c1ccccc1)c1ccccc1)N1CCOCC1 | 2.927 | 4.309
Cc1n[nH]c(C)c1CCCN(C)Cc1c[nH]nc1-c1ccc(F)cc1 | 3.933 | -8.012
CC(C)(C)NC(=O)CN1CCCN(c2ccc(C#N)cn2)CC1 | 1.679 | 6.267
CC1CN(Cc2ccccn2)CCN1c1ccc2nncn2n1 (stereo not drawn) | 0.101 | -7.778
Cc1ccnn1CCC(=O)N1C[C@H]2CC[C@@H]1CN(CC(=O)N(C)C)C2 | -1.279 | 10.26
CCc1nc(CCNC(=O)C2CC2)sc1C | 1.994 | -1.55
COCCCN1C(=O)CC[C@H]2CN(c3ccnc4ccccc34)CC[C@H]21 | 1.49 | -32.53
O=C(NCC1CC1)C1CCC2(CCN(C(=O)c3cccs3)CC2)O1 (stereo not drawn) | 1.325 | 9.384
CCc1nccn1C1CCCN(C(=O)c2csc(C3CC3)n2)C1 (stereo not drawn) | 2.6 | -5.646
O=C(CSc1ncccn1)N1C[C@H]2CC[C@@H]1CN(Cc1ccncc1)C2 | 2.075 | -6.28
c1ccc(-c2nc(CN3CCCC3Cn3cncn3)no2)cc1 (stereo not drawn) | 0.2301 | -29.06
CC(C)c1nc(Cn2cncn2)n(-c2ccccn2)n1 | 4.813 | -20.16
Cc1nn(C)c2nc(N(C)CC3CCN(CC(C)C)C3)sc12 (stereo not drawn) | 4.1 | -7.295
CS(=O)(=O)N1CCC(n2nnn(-c3ccccc3)c2=O)CC1 | -0.2847 | 12.84
Cc1c[nH]nc1C1CCN(C(=O)CC2CCCC2)C1 (stereo not drawn) | 2.38 | -2.809
CCc1ccc(S(=O)(=O)N2CC3(COC(C)(C)OC3)C2)s1 | -1.234 | -6.334
CCc1nc(CNC(=O)Nc2ccc(C(=O)NC)cc2C)cs1 | -3.204 | -4.182
CNC(=O)N1CC[C@@H]2CN(CCc3cccc(OC)c3)S(=O)(=O)[C@@H]2CC1 | -0.3627 | 3.808
CC(N)Cc1ccccc1Sc1ccccc1 (stereo not drawn) | 2.995 | 11.27
COCC(=O)N1CCC2(CCCN(Cc3ccc(Cl)cc3)CC2)CC1 | 9.619 | -14.15
COCCN1CCO[C@@H]2CN(C(=O)Cc3ccccc3)CC[C@@H]2C1 | 1.726 | 6.684
CC(=O)NCCNC(=O)c1cccc(Cn2nc(C)cc2C)c1 | 6.659 | -14.91
COc1ccc(-n2cc(CNC(=O)c3ccc[nH]3)nn2)cc1 | 5.139 | 12.02
c1csc(CNc2ccccc2Cn2cncn2)c1 | 7.057 | 8.125
O=S(=O)(NCC1COc2ccccc2C1)N1CCCCC1 (stereo not drawn) | 2.226 | -10.77
NC(=O)C1=NC2=NS(=O)(=O)c3ccccc3N2N1Cc1ccc(Cl)cc1 | 1.886 | -1.986
Cc1n[nH]c(C)c1-c1c(C#N)c(N)nc2c1CCc1[nH]ccc1-2 | 6.202 | -532.2
COCCCNC(=O)c1cc(-c2cnc(N(C)C)nc2)cn1CC1CC1 | 6.432 | -28.69
c1ccc2oc(N3CCCC3Cn3cncn3)nc2c1 (stereo not drawn) | 2.063 | -6.291
COc1cccc(C(C)Nc2ncnc3c2NC(=O)CN3)c1 (stereo not drawn) | 2.485 | -159.2
Cc1nc(-c2ccccc2C)n(CC(=O)NC(C)C2CC2)n1 (stereo not drawn) | 3.608 | 0.5144
Cn1cc(CN2CCC(F)(F)C3(CCN(c4ncccn4)C3)C2)cn1 (stereo not drawn) | 4.985 | -7.993
Cc1nc(CN2CCCC(N(C)Cc3nc(CC(C)C)no3)C2)no1 (stereo not drawn) | 18.34 | -5.612
CN(Cc1cn2ccccc2n1)C1CCCN(c2cccnn2)C1 (stereo not drawn) | -3.291 | 15.07
Cc1cccc(CN2C[C@@H]3OCCN(c4ccnc(N(C)C)n4)[C@@H]3C2)c1 | 5.128 | 4.782
COc1cccc(C2CCN2C(=O)c2cnccn2)c1 (stereo not drawn) | -1.369 | -10.6
Cc1nnc([C@]23COC[C@H]2CN(Cc2cnn(C)c2)C3)o1 | 1.671 | -12.08

Some entries from above, unchanged:

{"compound": "COc1ccc(-n2cc(CNC(=O)c3ccc[nH]3)nn2)cc1", "PfKRS1": 5.139, "ClpP1P2": 12.02}
{"compound": "COc1cccc(C(C)Nc2ncnc3c2NC(=O)CN3)c1", "stereo": "stereo not drawn", "PfKRS1": 2.485, "ClpP1P2": -159.2}
{"compound": "Cn1cc(CN2CCC(F)(F)C3(CCN(c4ncccn4)C3)C2)cn1", "stereo": "stereo not drawn", "PfKRS1": 4.985, "ClpP1P2": -7.993}
{"compound": "COc1ccc(NC(=O)CSc2nc(C)c(C)c(C)c2C#N)cn1", "PfKRS1": 6.585, "ClpP1P2": 7.536}
{"compound": "COCCN(Cc1ccccn1)Cc1sccc1C", "PfKRS1": 1.69, "ClpP1P2": -32.51}
{"compound": "c1ccc(-c2ccc(C3CNCCO3)nc2)cc1", "stereo": "stereo not drawn", "PfKRS1": 4.986, "ClpP1P2": 10.08}
{"compound": "COc1cc2c(cc1OC)S(=O)(=O)N(Cc1ccccc1)C2=O", "PfKRS1": 12.1, "ClpP1P2": -8.944}
{"compound": "c1csc(CNc2ccccc2Cn2cncn2)c1", "PfKRS1": 7.057, "ClpP1P2": 8.125}
{"compound": "N#Cc1ccc(C2CC(=O)Nc3c2cnn3C2CCCC2)cc1", "stereo": "stereo not drawn", "PfKRS1": -0.1112, "ClpP1P2": -13.76}